No constants are given. Whether binding was seen depends on the method and setting. Binding seen in cells or lysates may run through a third protein. A yes stands for co-enrichment or nearness to the bait. Other partners may have been found. Sequences can lack the tags named with a protein.
Target: T1, Flag-tagged hexokinase 2 (HK2), overexpressed from the lentiviral vector LV-HK2 (UniProt P52789)
T1 sequence: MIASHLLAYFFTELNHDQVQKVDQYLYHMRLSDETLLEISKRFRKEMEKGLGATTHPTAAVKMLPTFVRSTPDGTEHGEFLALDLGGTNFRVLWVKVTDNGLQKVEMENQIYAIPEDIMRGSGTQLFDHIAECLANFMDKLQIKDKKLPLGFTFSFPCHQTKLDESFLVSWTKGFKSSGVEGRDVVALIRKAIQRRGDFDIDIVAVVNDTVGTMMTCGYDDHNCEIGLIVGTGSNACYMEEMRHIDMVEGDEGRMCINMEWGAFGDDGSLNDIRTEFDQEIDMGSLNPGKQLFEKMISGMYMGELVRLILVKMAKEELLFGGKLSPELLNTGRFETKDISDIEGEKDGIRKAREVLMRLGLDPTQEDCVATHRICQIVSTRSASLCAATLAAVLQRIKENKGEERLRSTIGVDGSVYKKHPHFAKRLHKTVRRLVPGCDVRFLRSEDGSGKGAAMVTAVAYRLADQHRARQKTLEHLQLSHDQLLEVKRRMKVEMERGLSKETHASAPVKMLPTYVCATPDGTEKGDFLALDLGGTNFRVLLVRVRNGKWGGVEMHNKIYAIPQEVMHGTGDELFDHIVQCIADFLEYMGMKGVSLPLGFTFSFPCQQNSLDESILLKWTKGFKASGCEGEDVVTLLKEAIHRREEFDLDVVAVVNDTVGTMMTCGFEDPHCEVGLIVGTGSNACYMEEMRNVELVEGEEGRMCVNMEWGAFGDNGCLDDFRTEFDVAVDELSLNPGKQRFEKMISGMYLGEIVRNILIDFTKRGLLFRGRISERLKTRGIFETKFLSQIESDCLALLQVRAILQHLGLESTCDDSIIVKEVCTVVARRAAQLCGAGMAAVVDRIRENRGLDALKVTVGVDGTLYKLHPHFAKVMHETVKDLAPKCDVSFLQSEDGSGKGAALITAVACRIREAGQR
Test: affinity purification with mass spectrometry; anti-HK2 IP products compared with anti-IgG IP products from lysates of post-IR MHCC97H LV-RFP and LV-HK2 cells; silver staining; mass spectrometry of specific bands

B1: aminoacyl tRNA synthetase complex interacting multifunctional protein 2 (AIMP2) (protein, UniProt Q13155 1-320)
chain: MPMYQVKPYHGGGAPLRVELPTCMYRLPNVHGRSYGPAPGAGHVQEESNLSLQALESRQDDILKRLYELKAAVDGLSKMIQTPDADLDVTNIIQADEPTTLTTNALDLNSVLGKDYGALKDIVINANPASPPLSLLVLHRLLCEHFRVLSTVHTHSSVKSVPENLLKCFGEQNKKQPRQDYQLGFTLIWKNVPKTQMKFSIQTMCPIEGEGNIARFLFSLFGQKHNAVNATLIDSWVDIAIFQLKEGSSKEKAAVFRSMNSALGKSPWLAGNELTVADVVLWSVLQQIGGCSVTVPANVQRWMRSCENLAPFNTALKLLK
B1 was tested, and the binding was “binds”.
